According to US20090075974A1, “AGENT FOR PROPHYLAXIS AND TREATMENT OF PANCREATITIS” (UMN Pharma Inc., priority 2005, published 2009):

Tested on: mouse with cerulein-induced pancreatitis
Assay: Cerulein-induced acute pancreatitis in mouse: amylase and lipase activity in plasma
Assay type: in vivo
Conditions: for inhibition rate of amylase: Example 3, FIG. 3, drug 3.2 mg/kg
Procedure: Receptor subtypes involved in the onset of pancreatitis were examined with the use of antagonists of 5-HT2A receptor, 5-HT2B receptor, and 5-HT2C receptor. A mouse having acute pancreatitis induced by excessive administration of cerulein was used as an animal model. This model is not affected by food consumption, which is different from CDE pancreatitis, and thus it is possible to obtain constant pathologic features and analyze data more accurately.
An aqueous solution of cerulein (0.05 mg/Kg) was administered to a five-week-old mouse every one hour five times by hypodermic injection. Each 5-HT2 antagonist suspended in a solvent (0.5% methylcellulose in saline) was administered under the dorsal skin 15 minutes before the first administration of cerulein. […] Further, only the solvent was administered to the control group (group administered with cerulein alone) under the dorsal skin. One hour after the final administration, blood was collected, and amylase activity and lipase activity in the plasma were determined.
Effects of various 5-HT2A antagonists on amylase activity and lipase activity in plasma of cerulein-induced pancreatic mice were examined. […] Then the amylase activity and the lipase activity in plasma were determined.
Effects of various 5-HT2 antagonists on amylase activity and lipase activity in plasma of cerulein-induced pancreatic mice were examined. […] Then the amylase activity and the lipase activity in plasma were determined.

SMILES | inhibition rate of amylase | inhibition rate of amylase activity (Example 2, FIG. 2, drug 3.2 mg/Kg) [%]
CC[C@@H](CO)NC(=O)[C@@H]1C=C2c3cccc4c3c(cn4C)C[C@H]2N(C)C1 [Methysergide, methysergide] | no inhibition | 
O=C(CCCN1CCC2(CC1)C(=O)NCN2c1ccccc1)c1ccc(F)cc1 [spiperone] | 15% | 41
